Test results: article PMC11705415
Results are given in words; binding and its absence hold for the method and conditions named. Binding seen in cells or lysates may run through a third protein. Some results given as binding are weak or reduced against the parent protein; the word gives no strength. Tags and fused reporters may be left off the sequences shown.

Chains of the proteins cited; added tags and fusions are not shown. Lines headed by an entry give the natural chain unless they say otherwise; changes in a name come on top. A line that says so, or that is headed by a name, gives the form on record, which may keep a tag or linker.
UniProt P62069: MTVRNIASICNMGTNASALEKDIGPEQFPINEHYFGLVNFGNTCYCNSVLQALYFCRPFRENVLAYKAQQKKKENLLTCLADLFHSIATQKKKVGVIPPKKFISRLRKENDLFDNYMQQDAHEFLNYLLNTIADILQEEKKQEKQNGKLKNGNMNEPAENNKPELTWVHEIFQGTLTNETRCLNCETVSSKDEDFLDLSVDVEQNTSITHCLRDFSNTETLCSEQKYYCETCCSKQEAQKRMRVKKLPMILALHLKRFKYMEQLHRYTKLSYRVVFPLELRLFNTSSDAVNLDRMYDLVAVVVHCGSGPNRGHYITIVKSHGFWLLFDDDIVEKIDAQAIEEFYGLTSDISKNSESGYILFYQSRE
HA-USP46-ΔK92 (P62069, form named): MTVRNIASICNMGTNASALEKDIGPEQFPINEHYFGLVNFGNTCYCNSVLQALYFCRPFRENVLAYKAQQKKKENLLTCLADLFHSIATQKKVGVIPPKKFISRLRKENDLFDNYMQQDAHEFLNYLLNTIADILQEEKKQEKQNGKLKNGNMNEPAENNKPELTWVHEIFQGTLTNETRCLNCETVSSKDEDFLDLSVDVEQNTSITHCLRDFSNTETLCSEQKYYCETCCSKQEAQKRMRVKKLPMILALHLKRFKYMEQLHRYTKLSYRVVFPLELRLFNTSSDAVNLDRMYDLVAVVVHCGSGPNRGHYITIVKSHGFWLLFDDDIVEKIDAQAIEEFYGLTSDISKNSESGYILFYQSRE

Key:
Test in all cases: co-IP; Neuro2a cells co-transfected with HA-USP46 and VC-tagged protein; lysis in TNE buffer with 0.1% Triton X-100; precipitation of the VC-tagged protein with anti-GFP antibody and Protein G magnetic beads at 4 °C; HA-USP46 detected by western blotting
VC-tagged HAP1 = target: T1, VC-tagged HAP1 (UniProt O35668)
T1 sequence: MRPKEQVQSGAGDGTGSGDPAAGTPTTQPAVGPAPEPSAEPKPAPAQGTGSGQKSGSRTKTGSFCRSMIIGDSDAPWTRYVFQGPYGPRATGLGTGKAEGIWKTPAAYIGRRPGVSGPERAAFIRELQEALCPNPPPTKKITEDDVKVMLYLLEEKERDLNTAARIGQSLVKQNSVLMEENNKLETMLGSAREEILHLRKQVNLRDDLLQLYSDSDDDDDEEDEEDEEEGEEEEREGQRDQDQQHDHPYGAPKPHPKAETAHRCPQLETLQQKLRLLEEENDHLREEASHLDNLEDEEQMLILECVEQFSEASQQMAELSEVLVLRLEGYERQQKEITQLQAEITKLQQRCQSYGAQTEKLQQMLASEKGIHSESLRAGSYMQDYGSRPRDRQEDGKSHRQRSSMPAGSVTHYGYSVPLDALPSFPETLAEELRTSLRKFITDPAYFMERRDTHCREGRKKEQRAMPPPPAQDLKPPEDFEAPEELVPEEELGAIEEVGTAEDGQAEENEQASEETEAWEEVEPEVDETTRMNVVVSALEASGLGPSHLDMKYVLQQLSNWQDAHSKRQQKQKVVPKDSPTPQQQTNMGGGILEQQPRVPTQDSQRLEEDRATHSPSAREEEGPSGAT

VC-tagged HOOK3 = target: T2, VC-tagged HOOK3 (UniProt Q8BUK6)
T2 sequence: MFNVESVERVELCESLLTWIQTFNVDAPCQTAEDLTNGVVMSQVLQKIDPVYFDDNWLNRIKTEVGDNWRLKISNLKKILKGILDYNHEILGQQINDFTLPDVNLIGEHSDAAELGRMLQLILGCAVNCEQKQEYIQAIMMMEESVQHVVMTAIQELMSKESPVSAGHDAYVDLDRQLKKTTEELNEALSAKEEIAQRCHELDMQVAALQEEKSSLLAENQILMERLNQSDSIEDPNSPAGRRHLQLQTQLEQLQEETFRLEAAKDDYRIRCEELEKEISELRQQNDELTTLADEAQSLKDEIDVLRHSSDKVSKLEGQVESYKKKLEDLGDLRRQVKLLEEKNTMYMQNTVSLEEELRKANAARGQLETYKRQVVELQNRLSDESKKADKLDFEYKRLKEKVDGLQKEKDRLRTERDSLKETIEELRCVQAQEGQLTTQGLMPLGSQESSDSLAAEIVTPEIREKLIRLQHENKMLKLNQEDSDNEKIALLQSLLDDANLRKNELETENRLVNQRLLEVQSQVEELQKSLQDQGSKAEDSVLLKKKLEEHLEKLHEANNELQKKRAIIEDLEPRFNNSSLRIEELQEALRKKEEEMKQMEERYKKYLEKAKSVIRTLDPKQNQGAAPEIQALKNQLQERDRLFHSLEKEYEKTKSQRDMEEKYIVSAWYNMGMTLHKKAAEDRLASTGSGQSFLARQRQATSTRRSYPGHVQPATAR

VC-tagged SNAP29 = target: T3, VC-tagged SNAP29 (UniProt Q9ERB0)
T3 sequence: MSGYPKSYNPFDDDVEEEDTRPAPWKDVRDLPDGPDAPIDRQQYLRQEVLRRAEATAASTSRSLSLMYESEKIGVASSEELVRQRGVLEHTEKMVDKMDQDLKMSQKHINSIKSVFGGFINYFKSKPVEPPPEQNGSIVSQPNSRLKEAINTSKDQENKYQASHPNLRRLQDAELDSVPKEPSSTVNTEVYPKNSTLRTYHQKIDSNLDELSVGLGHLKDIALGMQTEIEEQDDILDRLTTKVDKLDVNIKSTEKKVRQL

VC-tagged TPGS1 = target: T4, VC-tagged TPGS1 (UniProt Q99MS8)
T4 sequence: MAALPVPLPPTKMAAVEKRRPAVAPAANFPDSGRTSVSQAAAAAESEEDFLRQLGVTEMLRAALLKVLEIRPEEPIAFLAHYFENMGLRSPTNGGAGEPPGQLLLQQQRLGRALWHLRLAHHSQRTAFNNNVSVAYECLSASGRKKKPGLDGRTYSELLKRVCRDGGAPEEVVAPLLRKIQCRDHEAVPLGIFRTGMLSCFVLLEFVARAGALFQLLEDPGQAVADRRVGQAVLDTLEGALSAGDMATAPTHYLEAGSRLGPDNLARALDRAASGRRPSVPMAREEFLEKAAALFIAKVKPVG

Measured: binding

HA-USP46-ΔK92 (from UniProt P62069 1-366) (enzyme)
binds: VC-tagged HAP1 | VC-tagged HOOK3 | VC-tagged SNAP29 | VC-tagged TPGS1

HA-USP46-WT (from UniProt P62069 1-366) (enzyme)
binds: VC-tagged HAP1 | VC-tagged HOOK3 | VC-tagged SNAP29 | VC-tagged TPGS1
